The list shows a part of the results.
Legend:
Assay in all cases: log2 fold change, soluble protein after heating vs DMSO (PISA); higher = thermal stabilisation; K562 cells, 10 uM, 30 min; active = over 0.2 and 3.5 SD of the protein, either way, in both replicates (recomputed)
[1] = compound: Cc1ccc(NC(=O)c2ccc(CN3CC[C@H](N(C)C)C3)c(C(F)(F)F)c2)cc1Nc1nccc(-c2cncnc2)n1 [bafetinib]
Outline: (§1)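 K562 cells (2×10^6 cells/mL) were treated with 10 μM compound for 30 min, and aliquots were heated for 3 min over 48°C-58°C. Pooled aliquots were extracted in PBS with 0.5% NP-40 at 4°C, and the supernatant after 21,000xg for 90 min was measured by TMTpro 16plex LC-MS/MS with channel sums equalised. Reported thermal stability, relative to control samples and from duplicates, is a log2 fold change.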

By UniProt entry, the sequences of proteins in these tests, tags left out. Where a name states a change or a piece, a line headed by the entry shows the natural chain unless it says otherwise.
UniProt Q14624: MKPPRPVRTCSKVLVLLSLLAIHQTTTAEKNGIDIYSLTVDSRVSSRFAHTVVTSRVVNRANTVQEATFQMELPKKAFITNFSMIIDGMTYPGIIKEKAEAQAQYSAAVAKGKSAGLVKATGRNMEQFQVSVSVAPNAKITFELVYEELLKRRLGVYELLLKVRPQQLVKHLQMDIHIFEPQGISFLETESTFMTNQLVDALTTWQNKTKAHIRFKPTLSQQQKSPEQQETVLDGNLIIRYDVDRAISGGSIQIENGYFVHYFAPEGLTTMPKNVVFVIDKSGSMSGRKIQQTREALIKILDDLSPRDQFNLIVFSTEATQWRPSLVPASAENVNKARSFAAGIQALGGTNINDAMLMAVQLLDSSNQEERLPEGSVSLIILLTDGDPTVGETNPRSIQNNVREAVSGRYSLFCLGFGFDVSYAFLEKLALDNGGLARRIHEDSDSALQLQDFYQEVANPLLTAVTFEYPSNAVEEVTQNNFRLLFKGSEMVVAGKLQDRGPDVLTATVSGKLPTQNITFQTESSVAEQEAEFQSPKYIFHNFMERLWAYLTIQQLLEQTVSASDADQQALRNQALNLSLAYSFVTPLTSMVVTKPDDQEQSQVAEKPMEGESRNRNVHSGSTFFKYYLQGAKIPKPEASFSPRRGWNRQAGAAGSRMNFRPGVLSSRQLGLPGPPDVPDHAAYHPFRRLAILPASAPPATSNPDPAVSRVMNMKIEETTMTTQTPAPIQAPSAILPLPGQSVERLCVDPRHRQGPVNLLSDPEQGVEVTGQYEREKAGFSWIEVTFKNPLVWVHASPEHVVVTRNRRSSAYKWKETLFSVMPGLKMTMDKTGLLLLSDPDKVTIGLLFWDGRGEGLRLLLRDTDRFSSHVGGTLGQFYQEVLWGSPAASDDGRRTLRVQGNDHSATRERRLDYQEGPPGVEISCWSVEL
UniProt Q9NVH2, whole entry, looked up: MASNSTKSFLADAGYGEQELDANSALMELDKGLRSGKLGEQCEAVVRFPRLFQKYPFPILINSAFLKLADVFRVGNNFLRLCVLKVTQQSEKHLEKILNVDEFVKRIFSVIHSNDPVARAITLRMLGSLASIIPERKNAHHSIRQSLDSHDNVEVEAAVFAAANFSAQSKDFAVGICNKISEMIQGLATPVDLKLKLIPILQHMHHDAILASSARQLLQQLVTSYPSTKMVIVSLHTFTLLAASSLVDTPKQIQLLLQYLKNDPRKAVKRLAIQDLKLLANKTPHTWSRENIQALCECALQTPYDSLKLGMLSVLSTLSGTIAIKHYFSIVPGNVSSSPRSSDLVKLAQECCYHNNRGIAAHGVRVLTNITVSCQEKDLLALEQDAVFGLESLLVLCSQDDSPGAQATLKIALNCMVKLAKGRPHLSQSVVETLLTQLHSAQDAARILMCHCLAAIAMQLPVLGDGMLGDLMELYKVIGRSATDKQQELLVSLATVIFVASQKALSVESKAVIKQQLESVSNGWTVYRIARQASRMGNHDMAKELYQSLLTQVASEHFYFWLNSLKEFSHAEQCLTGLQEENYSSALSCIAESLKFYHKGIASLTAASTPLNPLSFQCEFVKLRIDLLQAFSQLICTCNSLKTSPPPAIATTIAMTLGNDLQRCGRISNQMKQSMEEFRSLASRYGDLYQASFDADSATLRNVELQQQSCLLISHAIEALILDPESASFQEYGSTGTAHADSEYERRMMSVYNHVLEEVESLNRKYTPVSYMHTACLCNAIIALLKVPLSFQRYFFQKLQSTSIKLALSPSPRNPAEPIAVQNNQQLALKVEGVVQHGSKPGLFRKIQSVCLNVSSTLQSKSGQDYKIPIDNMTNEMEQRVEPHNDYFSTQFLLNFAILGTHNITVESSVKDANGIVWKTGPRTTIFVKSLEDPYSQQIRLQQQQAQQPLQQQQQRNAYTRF
UniProt Q9Y6M1: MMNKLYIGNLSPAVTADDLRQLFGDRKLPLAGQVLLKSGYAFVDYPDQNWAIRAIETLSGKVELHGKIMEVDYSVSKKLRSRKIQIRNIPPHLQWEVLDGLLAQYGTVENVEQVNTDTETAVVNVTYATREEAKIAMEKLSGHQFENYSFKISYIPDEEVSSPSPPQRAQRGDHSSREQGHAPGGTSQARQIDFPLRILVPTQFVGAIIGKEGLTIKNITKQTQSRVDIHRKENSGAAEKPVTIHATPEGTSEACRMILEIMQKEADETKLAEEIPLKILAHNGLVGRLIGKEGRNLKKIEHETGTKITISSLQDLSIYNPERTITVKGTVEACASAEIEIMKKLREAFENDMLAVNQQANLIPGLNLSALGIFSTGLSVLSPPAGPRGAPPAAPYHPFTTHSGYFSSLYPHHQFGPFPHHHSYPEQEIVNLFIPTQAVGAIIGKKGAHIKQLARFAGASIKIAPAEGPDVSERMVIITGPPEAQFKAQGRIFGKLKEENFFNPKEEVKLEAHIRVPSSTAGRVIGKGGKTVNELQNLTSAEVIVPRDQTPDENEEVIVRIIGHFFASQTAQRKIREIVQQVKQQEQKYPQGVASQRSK
UniProt O00425, whole entry, looked up: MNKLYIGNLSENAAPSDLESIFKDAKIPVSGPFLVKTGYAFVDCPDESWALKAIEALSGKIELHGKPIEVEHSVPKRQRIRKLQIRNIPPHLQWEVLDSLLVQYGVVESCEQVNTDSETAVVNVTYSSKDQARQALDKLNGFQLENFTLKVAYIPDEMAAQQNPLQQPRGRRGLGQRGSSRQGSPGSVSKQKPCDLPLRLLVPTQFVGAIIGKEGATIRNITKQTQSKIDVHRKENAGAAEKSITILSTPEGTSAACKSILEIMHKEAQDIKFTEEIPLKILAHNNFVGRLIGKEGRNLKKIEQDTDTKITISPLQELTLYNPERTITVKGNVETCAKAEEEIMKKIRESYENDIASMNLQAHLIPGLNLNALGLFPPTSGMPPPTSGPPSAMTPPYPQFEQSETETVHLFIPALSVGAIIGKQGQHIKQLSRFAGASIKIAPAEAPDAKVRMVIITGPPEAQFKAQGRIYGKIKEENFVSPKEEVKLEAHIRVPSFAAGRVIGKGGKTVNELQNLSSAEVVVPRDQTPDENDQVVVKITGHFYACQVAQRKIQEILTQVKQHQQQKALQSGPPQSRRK
UniProt O43736: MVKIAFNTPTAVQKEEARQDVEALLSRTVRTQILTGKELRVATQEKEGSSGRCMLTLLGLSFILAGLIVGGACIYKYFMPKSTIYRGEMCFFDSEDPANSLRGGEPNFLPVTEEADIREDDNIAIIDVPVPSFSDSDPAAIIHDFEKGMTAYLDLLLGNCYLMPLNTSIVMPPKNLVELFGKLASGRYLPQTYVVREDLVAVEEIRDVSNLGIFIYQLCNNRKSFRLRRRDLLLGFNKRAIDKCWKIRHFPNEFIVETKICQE
UniProt P06756, whole entry, looked up: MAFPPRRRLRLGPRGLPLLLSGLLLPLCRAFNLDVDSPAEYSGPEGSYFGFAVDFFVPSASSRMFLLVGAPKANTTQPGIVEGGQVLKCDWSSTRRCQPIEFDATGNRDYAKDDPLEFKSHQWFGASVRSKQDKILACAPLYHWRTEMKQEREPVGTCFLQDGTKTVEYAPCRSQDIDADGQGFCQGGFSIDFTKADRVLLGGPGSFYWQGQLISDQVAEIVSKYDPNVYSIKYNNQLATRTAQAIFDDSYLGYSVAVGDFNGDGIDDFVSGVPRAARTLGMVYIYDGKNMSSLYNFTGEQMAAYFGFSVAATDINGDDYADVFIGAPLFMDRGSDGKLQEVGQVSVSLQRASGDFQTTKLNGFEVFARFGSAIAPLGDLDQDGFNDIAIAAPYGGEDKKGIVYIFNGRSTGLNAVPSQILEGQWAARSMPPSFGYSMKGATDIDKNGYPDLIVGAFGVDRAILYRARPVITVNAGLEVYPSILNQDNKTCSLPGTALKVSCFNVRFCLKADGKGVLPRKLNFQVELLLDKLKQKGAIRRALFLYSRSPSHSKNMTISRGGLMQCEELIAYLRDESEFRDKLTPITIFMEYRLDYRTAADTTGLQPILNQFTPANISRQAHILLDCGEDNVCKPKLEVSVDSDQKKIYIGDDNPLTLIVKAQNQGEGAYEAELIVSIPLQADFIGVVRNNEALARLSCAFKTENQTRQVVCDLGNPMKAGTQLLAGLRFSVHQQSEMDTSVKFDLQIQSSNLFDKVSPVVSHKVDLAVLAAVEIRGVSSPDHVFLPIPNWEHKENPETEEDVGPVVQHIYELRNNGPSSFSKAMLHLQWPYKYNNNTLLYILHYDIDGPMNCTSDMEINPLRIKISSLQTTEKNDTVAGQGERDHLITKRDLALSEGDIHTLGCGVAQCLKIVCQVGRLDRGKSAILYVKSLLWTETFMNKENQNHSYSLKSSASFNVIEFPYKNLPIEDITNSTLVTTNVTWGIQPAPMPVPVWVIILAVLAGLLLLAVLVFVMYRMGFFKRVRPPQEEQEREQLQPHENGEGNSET
UniProt O00458: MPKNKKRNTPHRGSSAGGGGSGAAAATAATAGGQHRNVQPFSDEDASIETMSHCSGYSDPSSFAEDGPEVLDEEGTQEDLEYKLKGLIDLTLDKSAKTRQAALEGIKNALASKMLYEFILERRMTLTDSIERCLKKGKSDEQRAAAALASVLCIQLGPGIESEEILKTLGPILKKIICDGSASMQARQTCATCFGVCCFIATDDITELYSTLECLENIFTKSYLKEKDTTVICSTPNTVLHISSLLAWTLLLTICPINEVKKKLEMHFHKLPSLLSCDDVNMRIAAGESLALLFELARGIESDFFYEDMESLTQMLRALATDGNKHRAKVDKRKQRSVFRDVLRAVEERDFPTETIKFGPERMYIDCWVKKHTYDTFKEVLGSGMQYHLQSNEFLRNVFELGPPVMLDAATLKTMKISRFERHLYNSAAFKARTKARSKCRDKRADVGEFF
UniProt P22692: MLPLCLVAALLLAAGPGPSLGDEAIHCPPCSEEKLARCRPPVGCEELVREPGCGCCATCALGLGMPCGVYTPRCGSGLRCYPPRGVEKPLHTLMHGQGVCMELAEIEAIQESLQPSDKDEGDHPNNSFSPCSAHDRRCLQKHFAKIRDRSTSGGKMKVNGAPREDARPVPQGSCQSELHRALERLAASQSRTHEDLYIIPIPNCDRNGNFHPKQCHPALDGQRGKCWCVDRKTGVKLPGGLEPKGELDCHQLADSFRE
UniProt Q9H1K1: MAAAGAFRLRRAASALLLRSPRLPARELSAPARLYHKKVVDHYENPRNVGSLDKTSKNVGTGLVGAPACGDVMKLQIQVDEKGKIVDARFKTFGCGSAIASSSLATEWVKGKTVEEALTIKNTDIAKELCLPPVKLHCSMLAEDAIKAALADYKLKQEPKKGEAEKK
UniProt Q16891: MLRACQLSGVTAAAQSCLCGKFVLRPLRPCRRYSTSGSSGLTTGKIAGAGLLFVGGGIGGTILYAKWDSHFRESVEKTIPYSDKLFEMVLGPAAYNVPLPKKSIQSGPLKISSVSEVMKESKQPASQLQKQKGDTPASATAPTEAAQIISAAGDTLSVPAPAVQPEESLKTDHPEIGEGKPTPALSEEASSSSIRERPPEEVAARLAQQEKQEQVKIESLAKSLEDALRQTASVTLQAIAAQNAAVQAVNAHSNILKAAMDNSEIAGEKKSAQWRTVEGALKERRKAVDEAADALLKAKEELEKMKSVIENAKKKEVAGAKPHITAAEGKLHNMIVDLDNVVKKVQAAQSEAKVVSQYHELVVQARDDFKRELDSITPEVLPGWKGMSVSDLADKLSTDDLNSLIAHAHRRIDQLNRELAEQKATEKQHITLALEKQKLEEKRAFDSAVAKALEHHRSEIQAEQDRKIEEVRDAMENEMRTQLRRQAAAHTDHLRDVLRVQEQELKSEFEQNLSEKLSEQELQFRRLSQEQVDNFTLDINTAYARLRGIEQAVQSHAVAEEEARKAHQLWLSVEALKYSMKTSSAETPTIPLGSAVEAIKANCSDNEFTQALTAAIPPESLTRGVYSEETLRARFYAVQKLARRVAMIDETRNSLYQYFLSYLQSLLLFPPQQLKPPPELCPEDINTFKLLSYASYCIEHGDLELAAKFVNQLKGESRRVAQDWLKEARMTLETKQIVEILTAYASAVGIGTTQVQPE
UniProt Q13418: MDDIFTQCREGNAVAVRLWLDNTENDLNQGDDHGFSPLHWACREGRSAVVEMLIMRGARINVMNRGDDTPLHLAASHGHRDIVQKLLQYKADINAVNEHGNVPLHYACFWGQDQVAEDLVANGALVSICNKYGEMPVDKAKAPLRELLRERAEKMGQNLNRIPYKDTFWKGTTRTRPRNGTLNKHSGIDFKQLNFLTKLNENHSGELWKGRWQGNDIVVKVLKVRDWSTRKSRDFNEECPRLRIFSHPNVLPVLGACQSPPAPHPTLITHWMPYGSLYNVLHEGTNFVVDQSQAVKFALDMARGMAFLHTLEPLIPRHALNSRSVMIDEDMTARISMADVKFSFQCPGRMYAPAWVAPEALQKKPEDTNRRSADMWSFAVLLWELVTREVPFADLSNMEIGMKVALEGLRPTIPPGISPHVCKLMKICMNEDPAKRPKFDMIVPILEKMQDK

[2] = compound: Cc1cccc(CC(=O)N2CCc3c2ccc(-c2cn(C)c4ncnc(N)c24)c3F)n1
Outline: as §1

[3] = compound: Cc1cn(-c2cc(NC(=O)c3ccc(C)c(Nc4nccc(-c5cccnc5)n4)c3)cc(C(F)(F)F)c2)cn1 [nilotinib]
Outline: as §1

[4] = compound: Cc1nc(Nc2n[nH]c3c2CN(C(=O)N[C@H](CN(C)C)c2ccccc2)C3(C)C)c2sccc2n1
Outline: as §1

[5] = compound: Cc1nc(Nc2ncc(C(=O)Nc3c(C)cccc3Cl)s2)cc(N2CCN(CCO)CC2)n1 [dasatinib]
Outline: as §1

[6] = compound: Cc1ncc(-c2ccnc(Nc3ccc(S(C)(=O)=O)cc3)n2)n1C(C)C
Outline: as §1

[7] = compound: Cn1cc(-c2ccc3c(c2)CCN3C(=O)Cc2cccc(C(F)(F)F)c2)c2c(N)ncnc21
Outline: as §1

[8] = compound: Cn1cc(-c2ccc3nnc(C(F)(F)c4ccc5ncccc5c4)n3n2)cn1
Outline: as §1

[9] = compound: Cn1cncc1[C@@](N)(c1ccc(Cl)cc1)c1ccc2c(c1)c(-c1cccc(Cl)c1)cc(=O)n2C [tipifarnib]
Outline: as §1

[10] = compound: FC(F)(F)c1ccc(/C=C/c2nc(COc3ccc(CCCCn4ccnn4)cc3)co2)cc1 [mubritinib]
Outline: as §1

[11] = compound: NC(=O)Nc1cc(-c2cccc(F)c2)sc1C(=O)N[C@H]1CCCNC1
Outline: as §1

[12] = compound: NC(=O)c1cnc(N[C@@H]2CCCC[C@@H]2N)nc1Nc1cccc(-n2nccn2)c1
Outline: as §1

[13] = compound: NC1(c2ccc(-c3nc4ccn5c(=O)[nH]nc5c4cc3-c3ccccc3)cc2)CCC1
Outline: as §1

[14] = compound: NCC(=O)Nc1ccc(-n2nc(C(F)(F)F)cc2-c2ccc3c(ccc4ccccc43)c2)cc1
Outline: as §1

[15] = compound: Nc1ccccc1NC(=O)c1ccc(CNC(=O)OCc2cccnc2)cc1 [entinostat]
Outline: as §1

[16] = compound: O=C(CCCCCCC(=O)Nc1ccccc1)NO [vorinostat]
Outline: as §1

[17] = compound: O=C(CCCCCCNC(=O)c1cnc(N(c2ccccc2)c2ccccc2Cl)nc1)NO [citarinostat]
Outline: as §1

[18] = compound: O=C(O)c1ccc2c(c1)nc(Nc1cccc(Cl)c1)c1ccncc12 [silmitasertib]
Outline: as §1

[19] = compound: O=C1NC(=O)C(c2cnc3ccccn23)=C1c1cn2c3c(cc(F)cc13)CN(C(=O)N1CCCCC1)CC2
Outline: as §1

[20] = compound: c1cc(OCCN2CCCCC2)cc(-c2n[nH]c3ccc(-c4nnc[nH]4)cc23)c1
Outline: as §1

Measured: log2 fold change

INPP5B (UniProt P32019)
inactive: [1] 0.103 | [2] -0.059 | [3] -0.077 | [4] 0.001 | [5] -0.111 | [6] 0.014 | [7] -0.005 | [8] -0.032 | [9] 0.072 | [10] 0.018 | [11] 0.106 | [12] -0.066 | [13] -0.003 | [14] -0.108 | [15] 0 | [16] 0.128 | [17] -0.016 | [18] 0.167 | [19] 0.118 | [20] 0.014

ITIH4 (UniProt Q14624)
inactive: [1] -0.319 | [2] 0.117 | [3] -0.259 | [4] 0.194 | [5] 0.039 | [6] 0.225 | [7] 0.148 | [8] 0.114 | [9] -0.038 | [10] -0.134 | [11] 0.064 | [12] -0.041 | [13] -0.136 | [14] -0.054 | [15] 0.048 | [16] 0.343 | [17] 0.054 | [18] 0.083 | [19] -0.005 | [20] 0.275

INTS7 (UniProt Q9NVH2)
inactive: [1] 0.02 | [2] 0.033 | [3] -0.054 | [4] -0.025 | [5] -0.109 | [6] 0.114 | [7] -0.021 | [8] 0.017 | [9] -0.132 | [10] -0.123 | [11] -0.076 | [12] 0.037 | [13] 0.001 | [14] -0.045 | [15] -0.095 | [16] 0.049 | [17] -0.007 | [18] 0.055 | [19] 0.092 | [20] 0.01

IGF2BP2 (UniProt Q9Y6M1)
inactive: [1] 0.121 | [2] 0.004 | [3] -0.058 | [4] -0.018 | [5] 0.038 | [6] -0.039 | [7] -0.228 | [8] -0.191 | [9] 0.069 | [10] -0.071 | [11] 0.014 | [12] -0.051 | [13] 0.237 | [14] 0.045 | [15] 0.015 | [16] 0.128 | [17] -0.178 | [18] 0.16 | [19] 0.155 | [20] -0.208

IKBKG isoform 2 (UniProt Q9Y6K9)
inactive: [1] 0.003 | [2] -0.018 | [3] -0.072 | [4] -0.029 | [5] 0.109 | [6] 0.025 | [7] -0.047 | [8] -0.111 | [9] 0.012 | [10] 0.026 | [11] -0.03 | [12] -0.033 | [13] 0.055 | [14] -0.033 | [15] -0.025 | [16] -0.04 | [17] 0.007 | [18] -0.001 | [19] -0.005 | [20] -0.093

IGF2BP3 (UniProt O00425)
inactive: [1] 0.232 | [2] -0.016 | [3] 0.037 | [4] -0.239 | [5] 0.028 | [6] -0.04 | [7] -0.285 | [8] -0.239 | [9] -0.028 | [10] -0.252 | [11] 0.038 | [12] 0.014 | [13] 0.305 | [14] 0.087 | [15] 0.04 | [16] 0.053 | [17] 0.026 | [18] 0.245 | [19] 0.352 | [20] -0.148

INTS4 (UniProt Q96HW7)
inactive: [1] -0.018 | [2] -0.005 | [3] 0.04 | [4] -0.03 | [5] -0.048 | [6] -0.048 | [7] 0.026 | [8] -0.023 | [9] 0.048 | [10] 0.053 | [11] 0.019 | [12] -0.035 | [13] -0.031 | [14] -0.024 | [15] 0.024 | [16] -0.008 | [17] 0.007 | [18] 0.02 | [19] -0.018 | [20] -0.01

ITM2A (UniProt O43736)
inactive: [1] -0.077 | [2] 0.019 | [3] 0.065 | [4] -0.01 | [5] 0.129 | [6] 0.11 | [7] -0.109 | [8] -0.118 | [9] 0.077 | [10] -0.066 | [11] -0.025 | [12] 0.059 | [13] 0.031 | [14] -0.023 | [15] -0.035 | [16] 0.076 | [17] -0.02 | [18] 0.092 | [19] 0.115 | [20] -0.003

Two entries drawn at random from those above:
IKBKG isoform 2 (UniProt Q9Y6K9)
inactive: [1] 0.003 | [2] -0.018 | [3] -0.072 | [4] -0.029 | [5] 0.109 | [6] 0.025 | [7] -0.047 | [8] -0.111 | [9] 0.012 | [10] 0.026 | [11] -0.03 | [12] -0.033 | [13] 0.055 | [14] -0.033 | [15] -0.025 | [16] -0.04 | [17] 0.007 | [18] -0.001 | [19] -0.005 | [20] -0.093

IGF2BP2 (UniProt Q9Y6M1)
inactive: [1] 0.121 | [2] 0.004 | [3] -0.058 | [4] -0.018 | [5] 0.038 | [6] -0.039 | [7] -0.228 | [8] -0.191 | [9] 0.069 | [10] -0.071 | [11] 0.014 | [12] -0.051 | [13] 0.237 | [14] 0.045 | [15] 0.015 | [16] 0.128 | [17] -0.178 | [18] 0.16 | [19] 0.155 | [20] -0.208

Going on with the list.

ITGAV (UniProt P06756)
inactive: [1] -0.052 | [2] 0 | [3] -0.016 | [4] -0.006 | [5] 0.016 | [6] 0 | [7] 0.028 | [8] 0.032 | [9] 0.057 | [10] 0.05 | [11] 0 | [12] 0.024 | [13] -0.003 | [14] 0.011 | [15] -0.017 | [16] 0.006 | [17] 0.003 | [18] 0.018 | [19] -0.005 | [20] -0.081

IFRD1 (UniProt O00458)
inactive: [1] 0.118 | [2] -0.031 | [3] 0.165 | [4] 0.056 | [5] 0.071 | [6] 0.202 | [7] -0.011 | [8] -0.005 | [9] 0.001 | [10] 0.1 | [11] -0.035 | [12] -0.275 | [13] -0.058 | [14] -0.009 | [15] -0.08 | [16] -0.25 | [17] -0.035 | [18] 0.175 | [19] 0.022 | [20] -0.016

IGFBP4 (UniProt P22692)
inactive: [1] -0.126 | [2] -0.173 | [3] 0.077 | [4] -0.06 | [5] 0.14 | [6] -0.007 | [7] 0.116 | [8] -0.102 | [9] 0.033 | [10] -0.15 | [11] -0.019 | [12] 0.032 | [13] -0.011 | [14] -0.02 | [15] 0.022 | [16] -0.017 | [17] -0.124 | [18] 0.119 | [19] 0.044 | [20] 0.15

ISCU (UniProt Q9H1K1)
inactive: [1] -0.107 | [2] -0.012 | [3] 0.255 | [4] 0.05 | [5] -0.016 | [6] -0.005 | [7] 0.004 | [8] 0.021 | [9] 0.038 | [10] 0.038 | [11] -0.036 | [12] -0.017 | [13] -0.008 | [14] -0.015 | [15] -0.045 | [16] -0.039 | [17] 0.013 | [18] -0.008 | [19] -0.12 | [20] -0.036

IMMT isoform 2 (UniProt Q16891)
inactive: [1] -0.081 | [2] 0.11 | [3] -0.007 | [4] -0.002 | [5] 0.144 | [6] -0.022 | [7] -0.037 | [8] 0.037 | [9] 0.065 | [10] 0.066 | [11] 0 | [12] -0.045 | [13] -0.044 | [14] -0.066 | [15] 0.039 | [16] 0.159 | [17] 0.042 | [18] -0.066 | [19] 0.064 | [20] 0.008

ILK (UniProt Q13418)
inactive: [1] -0.038 | [2] -0.012 | [3] 0.122 | [4] -0.024 | [5] -0.07 | [6] -0.002 | [7] 0.027 | [8] 0.005 | [9] -0.023 | [10] 0.048 | [11] -0.236 | [12] -0.125 | [13] -0.07 | [14] -0.095 | [15] -0.149 | [16] 0.083 | [17] -0.006 | [18] -0.003 | [19] -0.036 | [20] -0.048

IRAK4 (UniProt Q9NWZ3)
inactive: [1] -0.047 | [3] -0.089 | [4] -0.047 | [5] -0.143 | [6] -0.01 | [7] 0.011 | [8] 0.035 | [9] -0.116 | [10] -0.031 | [12] -0.088 | [14] -0.008 | [15] 0.053 | [16] 0.05 | [17] 0.002 | [18] 0.027 | [19] -0.024 | [20] -0.019
active: [2] 0.236 | [11] 0.349 | [13] -0.281
